Results taken from the supplement of paper PMC10849652.
The list shows a part of the results.

By UniProt entry, the sequences of proteins in these tests, tags left out. Where a name states a change or a piece, a line headed by the entry shows the natural chain unless it says otherwise.
UniProt P41252: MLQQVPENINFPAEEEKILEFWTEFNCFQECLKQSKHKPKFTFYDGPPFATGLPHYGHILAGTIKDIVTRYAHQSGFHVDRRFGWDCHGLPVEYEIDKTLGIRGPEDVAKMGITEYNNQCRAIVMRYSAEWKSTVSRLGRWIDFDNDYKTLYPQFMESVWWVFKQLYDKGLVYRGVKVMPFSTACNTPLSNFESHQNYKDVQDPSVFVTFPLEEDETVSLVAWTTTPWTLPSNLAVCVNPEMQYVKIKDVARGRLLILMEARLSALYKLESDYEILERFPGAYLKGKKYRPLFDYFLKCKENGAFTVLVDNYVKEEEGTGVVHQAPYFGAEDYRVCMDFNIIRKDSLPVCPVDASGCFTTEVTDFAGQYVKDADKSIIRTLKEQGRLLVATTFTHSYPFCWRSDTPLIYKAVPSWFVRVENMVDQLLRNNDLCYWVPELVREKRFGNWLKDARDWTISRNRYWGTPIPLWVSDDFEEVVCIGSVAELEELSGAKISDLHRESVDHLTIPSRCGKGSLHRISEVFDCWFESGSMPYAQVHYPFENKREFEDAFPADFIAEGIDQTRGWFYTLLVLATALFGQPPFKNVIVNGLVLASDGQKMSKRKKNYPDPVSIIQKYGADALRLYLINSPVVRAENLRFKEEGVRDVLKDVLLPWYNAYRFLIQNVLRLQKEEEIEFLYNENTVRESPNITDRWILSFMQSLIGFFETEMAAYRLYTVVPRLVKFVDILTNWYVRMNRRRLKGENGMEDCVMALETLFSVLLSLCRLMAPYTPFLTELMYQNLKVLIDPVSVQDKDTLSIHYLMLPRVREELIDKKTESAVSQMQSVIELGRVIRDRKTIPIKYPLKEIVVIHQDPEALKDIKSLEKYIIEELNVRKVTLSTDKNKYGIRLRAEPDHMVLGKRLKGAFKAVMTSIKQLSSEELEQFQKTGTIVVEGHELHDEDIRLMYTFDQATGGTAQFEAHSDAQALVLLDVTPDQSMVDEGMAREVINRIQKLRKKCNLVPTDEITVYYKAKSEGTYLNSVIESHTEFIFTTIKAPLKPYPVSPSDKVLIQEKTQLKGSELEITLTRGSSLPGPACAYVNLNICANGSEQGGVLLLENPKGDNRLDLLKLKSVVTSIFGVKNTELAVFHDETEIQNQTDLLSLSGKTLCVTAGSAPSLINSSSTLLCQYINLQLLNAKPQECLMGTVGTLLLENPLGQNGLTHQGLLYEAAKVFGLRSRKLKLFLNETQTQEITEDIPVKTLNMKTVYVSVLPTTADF
UniProt P11717, whole entry, looked up: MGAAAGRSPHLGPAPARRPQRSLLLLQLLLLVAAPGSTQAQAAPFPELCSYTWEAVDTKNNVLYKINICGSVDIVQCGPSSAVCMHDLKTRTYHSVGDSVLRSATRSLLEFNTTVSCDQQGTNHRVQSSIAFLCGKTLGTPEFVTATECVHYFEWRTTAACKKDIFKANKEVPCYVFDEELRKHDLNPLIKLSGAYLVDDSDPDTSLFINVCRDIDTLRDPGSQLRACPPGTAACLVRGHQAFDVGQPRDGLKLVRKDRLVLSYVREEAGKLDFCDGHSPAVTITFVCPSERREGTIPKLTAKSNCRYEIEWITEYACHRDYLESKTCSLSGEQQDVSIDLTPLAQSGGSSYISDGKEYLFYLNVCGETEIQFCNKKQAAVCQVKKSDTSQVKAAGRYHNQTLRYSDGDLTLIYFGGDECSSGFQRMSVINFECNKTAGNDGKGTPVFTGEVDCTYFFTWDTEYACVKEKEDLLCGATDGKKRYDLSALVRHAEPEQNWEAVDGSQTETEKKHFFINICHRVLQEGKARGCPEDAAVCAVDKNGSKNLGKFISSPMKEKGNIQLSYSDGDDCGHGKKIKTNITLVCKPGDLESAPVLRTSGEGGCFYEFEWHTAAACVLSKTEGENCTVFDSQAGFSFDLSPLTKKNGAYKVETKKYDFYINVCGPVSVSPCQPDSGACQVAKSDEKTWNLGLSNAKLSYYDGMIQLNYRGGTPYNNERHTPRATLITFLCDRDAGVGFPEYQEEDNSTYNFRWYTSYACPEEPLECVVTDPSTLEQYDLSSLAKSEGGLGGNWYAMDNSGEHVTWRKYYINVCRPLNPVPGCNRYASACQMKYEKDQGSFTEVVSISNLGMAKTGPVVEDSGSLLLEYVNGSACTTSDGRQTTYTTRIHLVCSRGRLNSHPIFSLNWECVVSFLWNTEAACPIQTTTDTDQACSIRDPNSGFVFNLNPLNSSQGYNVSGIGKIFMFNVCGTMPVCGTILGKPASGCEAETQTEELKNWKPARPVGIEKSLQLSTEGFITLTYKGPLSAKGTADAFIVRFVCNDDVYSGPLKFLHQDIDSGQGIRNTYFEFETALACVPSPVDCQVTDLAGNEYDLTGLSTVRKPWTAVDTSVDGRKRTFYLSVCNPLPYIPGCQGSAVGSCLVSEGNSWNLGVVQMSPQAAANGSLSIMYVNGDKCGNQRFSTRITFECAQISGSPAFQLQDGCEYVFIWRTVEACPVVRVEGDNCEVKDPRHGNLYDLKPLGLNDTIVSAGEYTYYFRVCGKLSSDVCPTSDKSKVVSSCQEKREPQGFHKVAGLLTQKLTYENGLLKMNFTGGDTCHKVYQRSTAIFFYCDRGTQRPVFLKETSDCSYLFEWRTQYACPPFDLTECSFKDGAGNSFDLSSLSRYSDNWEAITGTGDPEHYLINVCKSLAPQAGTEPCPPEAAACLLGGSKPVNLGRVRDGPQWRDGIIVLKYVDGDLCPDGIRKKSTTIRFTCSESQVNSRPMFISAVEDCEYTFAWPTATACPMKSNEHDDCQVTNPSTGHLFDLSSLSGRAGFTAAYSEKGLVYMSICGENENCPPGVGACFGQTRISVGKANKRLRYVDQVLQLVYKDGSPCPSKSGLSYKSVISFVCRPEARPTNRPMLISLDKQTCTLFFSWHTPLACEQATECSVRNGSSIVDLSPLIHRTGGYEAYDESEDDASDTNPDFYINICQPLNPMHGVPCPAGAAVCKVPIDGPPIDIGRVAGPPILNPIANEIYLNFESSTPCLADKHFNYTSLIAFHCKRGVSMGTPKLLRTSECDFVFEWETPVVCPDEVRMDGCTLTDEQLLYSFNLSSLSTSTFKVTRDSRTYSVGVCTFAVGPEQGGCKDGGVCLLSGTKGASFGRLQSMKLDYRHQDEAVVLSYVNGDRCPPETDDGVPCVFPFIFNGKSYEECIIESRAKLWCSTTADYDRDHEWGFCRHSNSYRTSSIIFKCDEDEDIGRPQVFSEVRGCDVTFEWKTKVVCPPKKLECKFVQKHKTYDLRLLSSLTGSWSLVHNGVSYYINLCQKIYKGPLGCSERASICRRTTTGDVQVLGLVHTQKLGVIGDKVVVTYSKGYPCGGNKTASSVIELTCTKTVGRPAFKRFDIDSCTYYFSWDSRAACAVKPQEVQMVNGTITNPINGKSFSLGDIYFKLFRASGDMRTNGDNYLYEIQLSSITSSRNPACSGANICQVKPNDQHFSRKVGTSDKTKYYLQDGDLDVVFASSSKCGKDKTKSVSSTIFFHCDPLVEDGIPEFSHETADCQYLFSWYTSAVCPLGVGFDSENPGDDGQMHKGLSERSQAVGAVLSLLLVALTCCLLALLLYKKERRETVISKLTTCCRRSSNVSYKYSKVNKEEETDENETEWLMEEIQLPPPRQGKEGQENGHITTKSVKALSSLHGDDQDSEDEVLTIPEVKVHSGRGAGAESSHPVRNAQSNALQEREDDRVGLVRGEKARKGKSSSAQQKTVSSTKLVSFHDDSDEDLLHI
UniProt Q9P2H3, whole entry, looked up: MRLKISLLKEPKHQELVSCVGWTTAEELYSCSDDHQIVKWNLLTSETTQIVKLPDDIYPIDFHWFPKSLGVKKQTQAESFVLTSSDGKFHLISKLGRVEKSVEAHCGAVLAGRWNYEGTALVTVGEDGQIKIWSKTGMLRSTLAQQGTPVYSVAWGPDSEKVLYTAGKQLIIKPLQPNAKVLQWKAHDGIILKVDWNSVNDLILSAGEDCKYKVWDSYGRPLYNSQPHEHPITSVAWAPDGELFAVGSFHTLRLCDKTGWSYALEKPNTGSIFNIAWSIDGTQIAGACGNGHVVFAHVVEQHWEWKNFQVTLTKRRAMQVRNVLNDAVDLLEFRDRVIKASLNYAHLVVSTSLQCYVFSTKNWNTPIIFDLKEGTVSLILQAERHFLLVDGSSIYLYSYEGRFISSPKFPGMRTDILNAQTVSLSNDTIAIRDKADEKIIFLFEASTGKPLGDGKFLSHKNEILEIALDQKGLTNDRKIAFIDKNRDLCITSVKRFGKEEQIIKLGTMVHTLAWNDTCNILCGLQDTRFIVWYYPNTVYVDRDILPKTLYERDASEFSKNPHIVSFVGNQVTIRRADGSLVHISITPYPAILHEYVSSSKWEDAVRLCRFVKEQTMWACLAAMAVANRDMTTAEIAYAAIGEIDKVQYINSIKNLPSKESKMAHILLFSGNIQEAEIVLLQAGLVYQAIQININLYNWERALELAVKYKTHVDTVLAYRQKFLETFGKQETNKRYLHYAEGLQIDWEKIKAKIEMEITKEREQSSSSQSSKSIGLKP
UniProt Q01628, whole entry, looked up: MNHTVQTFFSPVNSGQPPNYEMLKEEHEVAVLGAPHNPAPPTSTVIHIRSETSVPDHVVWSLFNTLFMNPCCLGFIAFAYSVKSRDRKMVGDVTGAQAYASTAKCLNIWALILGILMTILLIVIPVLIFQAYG
UniProt Q9NZI8, whole entry, looked up: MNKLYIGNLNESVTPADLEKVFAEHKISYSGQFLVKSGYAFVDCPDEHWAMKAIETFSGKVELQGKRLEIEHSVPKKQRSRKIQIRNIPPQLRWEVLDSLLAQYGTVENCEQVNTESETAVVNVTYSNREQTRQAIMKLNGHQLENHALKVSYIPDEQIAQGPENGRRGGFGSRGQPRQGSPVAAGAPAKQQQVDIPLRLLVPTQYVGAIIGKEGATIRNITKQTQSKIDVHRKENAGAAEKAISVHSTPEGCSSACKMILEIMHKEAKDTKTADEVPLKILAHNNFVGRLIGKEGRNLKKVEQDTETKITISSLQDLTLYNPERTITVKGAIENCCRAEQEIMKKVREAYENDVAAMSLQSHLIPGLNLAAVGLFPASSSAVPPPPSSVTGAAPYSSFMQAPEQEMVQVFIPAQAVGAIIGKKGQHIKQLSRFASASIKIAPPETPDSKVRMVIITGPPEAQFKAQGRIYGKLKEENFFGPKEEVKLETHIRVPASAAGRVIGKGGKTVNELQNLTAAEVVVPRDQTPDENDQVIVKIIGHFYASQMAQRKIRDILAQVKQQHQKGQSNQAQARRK
UniProt Q9Y4L1: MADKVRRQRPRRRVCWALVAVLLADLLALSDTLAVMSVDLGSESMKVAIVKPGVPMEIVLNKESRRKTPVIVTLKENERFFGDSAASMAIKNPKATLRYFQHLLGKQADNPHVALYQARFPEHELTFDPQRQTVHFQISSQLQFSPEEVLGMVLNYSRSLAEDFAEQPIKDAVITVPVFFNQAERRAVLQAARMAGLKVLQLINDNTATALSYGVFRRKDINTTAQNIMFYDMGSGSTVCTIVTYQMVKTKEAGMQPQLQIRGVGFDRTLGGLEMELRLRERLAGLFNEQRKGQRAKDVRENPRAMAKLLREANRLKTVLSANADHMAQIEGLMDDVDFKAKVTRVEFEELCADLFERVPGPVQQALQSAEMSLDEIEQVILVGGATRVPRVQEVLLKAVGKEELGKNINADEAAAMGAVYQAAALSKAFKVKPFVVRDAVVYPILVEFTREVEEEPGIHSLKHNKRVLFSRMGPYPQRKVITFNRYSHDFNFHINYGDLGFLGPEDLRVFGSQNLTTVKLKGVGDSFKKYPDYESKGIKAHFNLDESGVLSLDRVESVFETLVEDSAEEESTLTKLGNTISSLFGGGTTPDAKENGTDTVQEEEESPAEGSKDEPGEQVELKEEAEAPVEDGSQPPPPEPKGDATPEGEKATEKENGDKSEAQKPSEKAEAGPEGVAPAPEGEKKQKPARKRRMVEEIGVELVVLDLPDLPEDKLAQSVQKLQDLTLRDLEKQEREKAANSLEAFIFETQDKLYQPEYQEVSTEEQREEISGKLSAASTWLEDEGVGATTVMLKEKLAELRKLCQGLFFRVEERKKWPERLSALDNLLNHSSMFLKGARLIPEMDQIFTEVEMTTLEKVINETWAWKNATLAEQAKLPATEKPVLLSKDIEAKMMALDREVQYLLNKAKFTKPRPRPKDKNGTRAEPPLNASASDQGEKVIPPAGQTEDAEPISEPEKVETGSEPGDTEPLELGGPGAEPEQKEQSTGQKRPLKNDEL
UniProt Q9BUP3: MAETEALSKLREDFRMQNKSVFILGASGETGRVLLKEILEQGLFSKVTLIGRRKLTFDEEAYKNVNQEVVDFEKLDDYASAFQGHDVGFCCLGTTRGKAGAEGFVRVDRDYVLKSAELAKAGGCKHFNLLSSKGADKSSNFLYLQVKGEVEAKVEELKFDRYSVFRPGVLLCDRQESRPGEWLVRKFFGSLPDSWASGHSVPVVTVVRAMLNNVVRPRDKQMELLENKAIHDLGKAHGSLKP

Columns and labels:
Assay in all cases: log2 fold change, soluble protein after heating vs DMSO (PISA); higher = thermal stabilisation; K562 lysate, 10 uM; active = over 0.2 and 3.5 SD of the protein, either way, in both replicates (recomputed)
[1] = compound: C=CC(=O)N1CCC[C@@H](n2nc(-c3ccc(Oc4ccccc4)cc3)c3c(N)ncnc32)C1 [ibrutinib]
How it was run: (§1)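 Soluble protein was defined as the supernatant remaining after 21,000xg for 90 min, following pooling of heated aliquots and adjustment to 0.5% NP-40 at 4°C. Before that, crude K562 extract at 1 mg/mL protein in PBS pH 7.4 with 1 mM MgCl2 was treated with 10 μM compound for 30 min and heated for 3 min across 48°C-58°C. Quantification used TMTpro 16plex LC-MS/MS with channel sums equalised, and values are log-two fold changes in thermal stability relative to solvent controls from duplicates.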

[2] = compound: CC(=O)c1cnc2ccc(-c3cc(Cl)c(O)c(Cl)c3)nc2c1N[C@H]1CC[C@H](CN(C)C)CC1
How it was run: as §1

[3] = compound: CC(C)(C)Cn1c(N)nc2ccc(-c3[nH]c(C(C)(C)C)nc3-c3ccc(F)cc3)nc21 [ralimetinib]
How it was run: as §1

[4] = compound: CC(C)(O)CC(=O)NCCn1ccc2ncnc(Nc3ccc(Oc4cccc(C(F)(F)F)c4)c(Cl)c3)c21
How it was run: as §1

[5] = compound: CC(C)C1=C2N=C(C=C(N2N=C1)NCC3=CC=CC=C3)NCCCCCCN
How it was run: as §1

[6] = compound: CC1=C(C(CC(=O)N1)C2=CC=C(C=C2)C(F)(F)F)C(=O)NC3=C(C=C4C(=C3)C=NN4)F
How it was run: as §1

[7] = compound: CC1=C(C2=C(C=C1)C(=O)C3=CC=CC=C3N2CCCN)C
How it was run: as §1

[8] = compound: CC1=C(C=C(C=C1)NC(=O)C2=CC(=CC=C2)C(C)(C)C#N)NC3=CC4=C(C=C3)N=CN(C4=O)C
How it was run: as §1

[9] = compound: CC1=C(C=C(C=C1)NC(=O)C2=CC(=CC=C2)N(C)C)NC(=O)C3=CC=C(C=C3)O
How it was run: as §1

[10] = compound: CC1=CC=C(C=C1)SC2=C3C=C(SC3=CN=C2)C(=O)N
How it was run: as §1

[11] = compound: CCCS(=O)(=O)Nc1ccc(F)c(C(=O)c2c[nH]c3ncc(-c4ccc(Cl)cc4)cc23)c1F [vemurafenib]
How it was run: as §1

[12] = compound: CCCS(=O)(=O)Nc1ccc(F)c(C(=O)c2c[nH]c3ncc(Cl)cc23)c1F
How it was run: as §1

[13] = compound: CCN(CCCOc1ccc2c(Nc3cc(CC(=O)Nc4cccc(F)c4)[nH]n3)ncnc2c1)CCOP(=O)(O)O [barasertib]
How it was run: as §1

[14] = compound: CC[C@@H]1C(=O)N(C)c2cnc(Nc3ccc(C(=O)NC4CCN(C)CC4)cc3OC)nc2N1C1CCCC1
How it was run: as §1

[15] = compound: CC[C@@H]1C(=O)N(C)c2cnc(Nc3ccc(C(=O)N[C@H]4CC[C@H](N5CCN(CC6CC6)CC5)CC4)cc3OC)nc2N1C(C)C [volasertib]
How it was run: as §1

[16] = compound: CCn1c(C(=O)N(C2CC2)C2CC2)cc2c3c(ncn3C)c(Nc3cc(C)n(C)n3)nc21
How it was run: as §1

[17] = compound: CCn1cc(-c2ccnc3[nH]c(-c4cccc(CN(C)C)c4)cc23)c(-c2ccc(NC(=O)N(C)C)cc2)n1
How it was run: as §1

[18] = compound: CN1CCC(CNc2ccc3ncc(-c4cccc(OC(F)(F)F)c4)n3n2)CC1
How it was run: as §1

[19] = compound: CN1CCN(CCOc2cc(OC3CCOCC3)c3c(Nc4c(Cl)ccc5c4OCO5)ncnc3c2)CC1 [saracatinib]
How it was run: as §1

[20] = compound: CN1CCN(c2nc(C3=C(c4c[nH]c5ccccc45)C(=O)NC3=O)c3ccccc3n2)CC1 [sotrastaurin]
How it was run: as §1

Measured: log2 fold change

IARS (UniProt P41252)
inactive: [1] -0.015 | [2] -0.001 | [3] 0.037 | [4] 0.035 | [5] 0.029 | [6] -0.016 | [7] 0.012 | [8] -0.04 | [9] 0.05 | [10] 0.029 | [11] 0.004 | [12] 0.011 | [13] 0.026 | [14] -0.086 | [15] -0.079 | [16] 0.048 | [17] 0.044 | [18] -0.111 | [19] 0.006 | [20] 0.014

ILRUN (UniProt Q9H6K1)
inactive: [1] -0.002 | [2] -0.011 | [3] 0.001 | [4] -0.019 | [5] 0.007 | [6] 0.035 | [7] -0.03 | [8] 0.009 | [9] 0.018 | [10] 0.02 | [11] -0.012 | [12] 0.048 | [13] 0.06 | [14] -0.001 | [15] -0.058 | [16] -0.059 | [17] -0.109 | [18] 0.067 | [19] 0.024 | [20] -0.003

INPP1 (UniProt P49441)
inactive: [1] -0.081 | [2] -0.02 | [3] 0.003 | [4] -0.044 | [5] -0.01 | [6] 0.001 | [7] 0.008 | [8] -0.011 | [9] 0.005 | [10] 0.022 | [11] -0.015 | [12] -0.012 | [13] 0.044 | [14] -0.053 | [15] -0.02 | [16] -0.005 | [17] 0.003 | [18] 0.026 | [19] 0.035 | [20] 0.044

ILK (UniProt Q13418)
inactive: [1] 0.017 | [2] 0.006 | [3] 0 | [4] -0.022 | [5] -0.007 | [6] 0.013 | [7] -0.02 | [8] 0.049 | [9] -0.001 | [10] 0.057 | [11] 0.029 | [12] -0.024 | [13] 0.059 | [14] -0.03 | [15] -0.072 | [16] 0.016 | [17] -0.034 | [18] -0.019 | [19] 0.011 | [20] -0.002

IGF2R (UniProt P11717)
inactive: [1] 0.003 | [2] -0.003 | [3] 0.015 | [4] -0.013 | [5] -0.022 | [6] 0.032 | [7] -0.008 | [8] -0.014 | [9] -0.011 | [10] -0.015 | [11] -0.007 | [12] 0.008 | [13] -0.005 | [14] 0.026 | [15] 0.01 | [16] 0.007 | [17] -0.041 | [18] 0.049 | [19] -0.013 | [20] 0.055

IMP3 (UniProt Q9NV31)
inactive: [1] 0.036 | [2] -0.087 | [3] -0.002 | [4] 0.007 | [5] 0.037 | [6] 0.022 | [7] 0.147 | [8] 0.159 | [9] -0.077 | [10] 0.783 | [11] 0.173 | [12] -0.138 | [13] -0.015 | [14] 0.194 | [15] 0.008 | [16] -0.063 | [17] -0.149 | [18] 0.009 | [19] 0.056 | [20] -0.024

IFT80 isoform 3 (UniProt Q9P2H3)
inactive: [1] -0.058 | [2] 0.105 | [3] -0.018 | [4] -0.079 | [5] -0.001 | [6] -0.103 | [7] -0.095 | [8] -0.1 | [9] -0.01 | [10] 0.005 | [11] 0.033 | [12] 0.037 | [13] 0.024 | [14] 0.183 | [15] -0.025 | [16] -0.068 | [17] -0.082 | [18] -0.099 | [19] -0.008 | [20] 0.026

IFITM3 (UniProt Q01628)
inactive: [1] -0.07 | [2] -0.042 | [3] 0.179 | [4] 0.078 | [5] 0.003 | [6] -0.173 | [7] -0.117 | [8] -0.133 | [9] -0.026 | [10] 0.129 | [11] -0.046 | [12] 0.079 | [13] 0.342 | [14] -0.06 | [15] -0.025 | [16] 0.026 | [17] -0.11 | [18] 0.112 | [19] -0.041 | [20] 0.052

IGF2BP1 (UniProt Q9NZI8)
inactive: [1] 0.026 | [2] -0.013 | [3] 0.052 | [4] 0.057 | [5] 0.047 | [6] -0.035 | [7] -0.02 | [8] -0.005 | [9] 0.049 | [10] 0.03 | [11] 0.047 | [12] 0.022 | [13] 0.024 | [14] -0.08 | [15] -0.029 | [16] 0.05 | [17] -0.124 | [18] -0.033 | [19] 0.021 | [20] 0.023

HYOU1 (UniProt Q9Y4L1)
inactive: [1] 0.003 | [2] 0.007 | [3] -0.006 | [4] 0 | [5] -0.001 | [6] -0.006 | [7] 0.002 | [8] -0.009 | [9] -0.004 | [10] -0.003 | [11] 0.03 | [12] -0.014 | [13] -0.029 | [14] 0.016 | [15] 0.008 | [16] -0.006 | [17] 0.089 | [18] -0.008 | [19] -0.01 | [20] -0.005

Quoted at random: two records from the list
IFT80 isoform 3 (UniProt Q9P2H3)
inactive: [1] -0.058 | [2] 0.105 | [3] -0.018 | [4] -0.079 | [5] -0.001 | [6] -0.103 | [7] -0.095 | [8] -0.1 | [9] -0.01 | [10] 0.005 | [11] 0.033 | [12] 0.037 | [13] 0.024 | [14] 0.183 | [15] -0.025 | [16] -0.068 | [17] -0.082 | [18] -0.099 | [19] -0.008 | [20] 0.026

IGF2BP1 (UniProt Q9NZI8)
inactive: [1] 0.026 | [2] -0.013 | [3] 0.052 | [4] 0.057 | [5] 0.047 | [6] -0.035 | [7] -0.02 | [8] -0.005 | [9] 0.049 | [10] 0.03 | [11] 0.047 | [12] 0.022 | [13] 0.024 | [14] -0.08 | [15] -0.029 | [16] 0.05 | [17] -0.124 | [18] -0.033 | [19] 0.021 | [20] 0.023

Following part

HTATIP2 isoform 3 (UniProt Q9BUP3)
inactive: [1] -0.038 | [2] -0.004 | [3] -0.008 | [4] 0.006 | [5] 0.001 | [6] 0.046 | [7] 0.026 | [8] -0.026 | [9] 0.034 | [10] -0.003 | [11] -0.023 | [12] -0.003 | [13] 0.027 | [14] 0.008 | [15] -0.036 | [16] 0.043 | [17] 0.064 | [18] -0.109 | [19] -0.002 | [20] 0.052

IGF2BP3 (UniProt O00425)
inactive: [1] 0.006 | [2] -0.019 | [3] -0.012 | [4] 0.011 | [5] 0.024 | [6] -0.009 | [7] 0.011 | [8] -0.047 | [9] 0.007 | [10] 0.021 | [11] 0.024 | [12] 0.006 | [13] 0.016 | [14] -0.106 | [15] -0.025 | [16] -0.016 | [17] -0.062 | [18] -0.022 | [19] 0.026 | [20] 0.011

HUWE1 (UniProt Q7Z6Z7)
inactive: [1] 0.012 | [2] -0.001 | [3] 0.024 | [4] -0.011 | [5] 0 | [6] 0 | [7] -0.014 | [8] 0 | [9] 0 | [10] -0.005 | [11] 0.012 | [12] 0.012 | [13] 0.002 | [14] 0.003 | [15] 0 | [16] 0.004 | [17] -0.025 | [18] 0.011 | [19] -0.003 | [20] 0

HTATSF1 (UniProt O43719)
inactive: [1] 0.007 | [2] -0.022 | [3] 0.017 | [4] -0.034 | [5] -0.023 | [6] -0.01 | [7] 0.003 | [8] 0.004 | [9] 0.017 | [10] -0.022 | [11] -0.017 | [12] -0.002 | [13] 0.002 | [14] 0.047 | [15] -0.012 | [16] -0.002 | [17] 0.007 | [18] 0.028 | [19] 0.007 | [20] 0.01

IDI1 (UniProt Q13907)
inactive: [1] 0.02 | [2] -0.009 | [3] -0.012 | [4] -0.006 | [5] -0.003 | [6] -0.019 | [7] -0.022 | [8] 0.139 | [9] 0.013 | [10] -0.02 | [11] -0.009 | [12] 0.001 | [13] 0.022 | [14] 0.081 | [15] 0 | [16] -0.017 | [17] -0.175 | [18] 0.048 | [19] -0.035 | [20] -0.101

IBA57 (UniProt Q5T440)
inactive: [1] 0.035 | [2] 0.014 | [3] 0.012 | [4] 0.013 | [5] -0.024 | [6] -0.037 | [7] -0.001 | [8] -0.091 | [9] 0.014 | [10] 0.03 | [11] 0.01 | [12] -0.019 | [13] -0.038 | [14] -0.024 | [15] -0.024 | [16] -0.004 | [17] -0.015 | [18] 0.048 | [19] 0.023 | [20] 0.017
